Experiment [1] deals with Saccharomyces cerevisiae HF7c pdr5Δ. The experiment is described as follows: general growth inhibition of yeast HF7c pdr5Δ in -Leu -Trp medium, relative to DMSO; higher = stronger general growth inhibition. The following applies: 100 µM; 24 h.
The subject of experiment [2] is human PEX3-PEX19 interaction (yeast two-hybrid). Kind of experiment: growth inhibition of yeast two-hybrid strain reporting HsPex3-HsPex19 interaction, relative to DMSO; higher = stronger inhibition of human Pex3-Pex19 interaction / growth. The note with it: 100 µM; 24 h; 3-aminotriazole 10 mM.
Experiment [3] deals with T. brucei Pex3-Pex19 interaction (yeast two-hybrid). Kind of experiment: growth inhibition of yeast two-hybrid strain reporting TbPex3-TbPex19 interaction, relative to DMSO; higher = stronger inhibition of T. brucei Pex3-Pex19 interaction / growth. The following applies: 100 µM; 24 h.

Counter-ions that a name gives are not always drawn. This is one part of the list. This is a noisy data set.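 Yeast growth was measured as optical density at 600 nm. Two-hybrid strains grew without histidine, so growth depended on Pex3–Pex19 binding. A compound was trypanosome-selective if it reduced growth of the trypanosome-pair strain by over 65% and of the human-pair strain by under 65%.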

This note sets out measurements from the supplement of paper PMC8326762, “A Small Molecule Inhibitor of Pex3–Pex19 Interaction Disrupts Glycosome Biogenesis and Causes Lethality in Trypanosoma brucei” (Frontiers in Cell and Developmental Biology, 2021).

As for `CC(N)=O` [Acetamide], the general growth inhibition in experiment [1] amounted to 13.7%. Besides, the growth inhibition in experiment [2] is 11.7%; in experiment [3] it was 36.7%.
The like results for `CNC(=O)c1cc2c(cn1)[nH]c1ccccc12` [N-Methyl-beta-carboline-3-carboxamide] were, in that order, 33.2%, 38.9% and 51.2%.
The like results for `c1cnc2cc3c(cc2n1)[C@@H]1CNC[C@H]3C1` [Varenicline tartrate] were, in that order, 44.3%, 43.5% and 60.8%.
The like results for `CC(N)=NCCCC[C@H](N)C(=O)O` [L-N6-(1-Iminoethyl)lysine hydrochloride] were, in that order, 42.2%, 46.9% and 65.2%.
`CC(=O)/C(C)=N/O` [2,3-Butanedione monoxime] had a general growth inhibition in experiment [1] of 10.8%. Further, the growth inhibition in experiment [2] was found to be 2.22%; in experiment [3], 25.5%.
In the case of `CN1CCN(c2nc3cc(C(F)(F)F)ccc3n3cccc23)CC1`, the general growth inhibition in experiment [1] amounted to 30.7%. The growth inhibition in experiment [2] was 28.3%; in experiment [3], 26.8%.
The like results for `CCN1CCC[C@H]1CNC(=O)c1c(O)c(Cl)cc(Cl)c1OC` [S(+)-Raclopride L-tartrate] were, in that order, 45.2%, 47.4% and 66.4%.
In turn, `Cc1cc(C(C)(C)C)cc(C)c1CC1=NCCN1` [Xylometazoline hydrochloride] had a general growth inhibition in experiment [1] of 54.3%. For the same compound, the growth inhibition in experiment [2] amounted to 46.2%; in experiment [3] it was 61%.
The like results for `Cc1cn[nH]c1` [4-Methylpyrazole hydrochloride] were, in that order, 19%, 7.94% and 37.9%.
As for `CN(C)CCCC1(c2ccc(F)cc2)OCc2cc(C#N)ccc21` (stereo not drawn) [Citalopram hydrobromide], the general growth inhibition in experiment [1] was 49.3%. Further, the growth inhibition is 31.6% in experiment [2] and 61.8% in experiment [3].
In the case of `CC1(C)C(=O)N(CCN2CCC(C(=O)c3ccc(F)cc3)CC2)c2ccccc21` [LY-310,762 hydrochloride], the general growth inhibition in experiment [1] amounted to 52.4%. In addition, the growth inhibition in experiment [2] is 30.3%; in experiment [3], 60.5%.
With `O=c1[nH]ccc2c(O)cccc12` [1,5-Isoquinolinediol], the general growth inhibition in experiment [1] was 46.9%. The growth inhibition in experiment [2] amounted to 45.3%; in experiment [3] it was 62.5%.
Take `CN1CCC[C@@H]1CCO[C@](C)(c1ccccc1)c1ccc(Cl)cc1` [Clemastine fumarate]: in experiment [1], the general growth inhibition is 37.9%. The growth inhibition in experiment [2] was 40%; in experiment [3] it was 56.4%.
The like results for `CC(C)OC(=O)C(C)(C)Oc1ccc(C(=O)c2ccc(Cl)cc2)cc1` [Fenofibrate] were, in that order, 34.3%, 38.5% and 50.3%.
In experiment [1], `O=C(O)CNC(=O)C(CS)Cc1ccccc1` (racemic) [DL-Thiorphan] gave a general growth inhibition of 57.1%. The results for the growth inhibition in experiment [2] and in experiment [3] were 48.5% and 63.2%, respectively.
The like results for `CC(=O)O[C@H]1Cc2ccccc2N(C(N)=O)c2ccccc21` were, in that order, 60.6%, 45.4% and 65.7%.
The like results for `CCCCOC(=O)NS(=O)(=O)c1sc(CC(C)C)cc1-c1ccc(Cn2c(CC)nc3c(C)cc(C)nc32)cc1` were, in that order, 43.6%, 11% and 48.5%.
The like results for `CC(C)NCC(O)c1ccc(O)c(O)c1` (stereo not drawn) [R(-)-Isoproterenol (+)-bitartrate] were, in that order, 8.71%, 8.42% and 32.4%.
In turn, `Nc1ncnc2c1ncn2[C@@H]1O[C@@H]2COP(=O)(O)O[C@H]2[C@H]1O` [Adenosine 3',5'-cyclic monophosphate] had a general growth inhibition in experiment [1] of 8.87%. Further, the growth inhibition worked out at 2.22% in experiment [2] and 33.9% in experiment [3].
On to `N[C@@H]1CONC1=O` [D-Cycloserine], for which the general growth inhibition in experiment [1] turned out to be 39%. Besides, the growth inhibition in experiment [2] stood at 41.1%; in experiment [3], 58.6%.
The like results for `CNCCC(Oc1ccccc1OC)c1ccccc1` (stereo not drawn) [Nisoxetine hydrochloride] were, in that order, 41.6%, 33.4% and 60.9%.
Take `NC(=O)c1cnccn1` [Pyrazinecarboxamide]: the general growth inhibition in experiment [1] amounted to 32.1%. For the same compound, the values for the growth inhibition in experiment [2] and in experiment [3] were 41.9% and 58.4%, respectively.
The like results for `COc1ccccc1N1CCN(CC(O)COc2cccc3ccccc23)CC1` (stereo not drawn) [Naftopidil dihydrochloride] were, in that order, 35.7%, 29.6% and 47.5%.
The like results for `O=C(O)[C@H](CC(=O)N1C[C@H]2CCCC[C@H]2C1)Cc1ccccc1` [Mitiglinide calcium] were, in that order, 45.6%, 49.9% and 67.6%.
The like results for `CN(C)CCOC(c1ccccc1)c1ccccc1` [Diphenhydramine hydrochloride] were, in that order, 31.8%, 49.6% and 62.1%.
Consider `Cn1ccc2cc3c(cc21)CCN3C(=O)Nc1cccnc1`, for which the general growth inhibition in experiment [1] is 29.7%. The values for the growth inhibition in experiment [2] and in experiment [3] were 36.2% and 58.2%, respectively.
The like results for `Clc1ccc(C(c2ccccc2Cl)C(Cl)Cl)cc1` (stereo not drawn) [1-(2-Chlorophenyl)-1-(4-chlorophenyl)-2,2-dichloroethane] were, in that order, 29%, 33.6% and 46.7%.
The like results for `CN(C)C/C=C(/c1ccc(Br)cc1)c1cccnc1` [Zimelidine dihydrochloride] were, in that order, 10.9%, 7.86% and 35.9%.
The like results for `CCCOC(=O)c1c(-c2ccccc2)nc(CC)c(C(=O)SCC)c1CCC` were, in that order, 34.6%, 50.4% and 55.5%.
With `COc1ccc(/C=C/C(=O)Nc2ccccc2C(=O)O)cc1OC` [Tranilast], in experiment [1], the general growth inhibition stood at 6.96%. For the same compound, the results for the growth inhibition in experiment [2] and in experiment [3] were 0.238% and 18.2%, respectively.
The like results for `COC(=O)C1=C(C)NC(C)=C(C(=O)OC)C1c1ccccc1[N+](=O)[O-]` [Nifedipine] were, in that order, 60.3%, 52% and 58.6%.
